Experimental data reported in paper PMC9561260.

T1: 2× HA-3× FLAG-Eya1 (UniProt P97767)
T1 sequence: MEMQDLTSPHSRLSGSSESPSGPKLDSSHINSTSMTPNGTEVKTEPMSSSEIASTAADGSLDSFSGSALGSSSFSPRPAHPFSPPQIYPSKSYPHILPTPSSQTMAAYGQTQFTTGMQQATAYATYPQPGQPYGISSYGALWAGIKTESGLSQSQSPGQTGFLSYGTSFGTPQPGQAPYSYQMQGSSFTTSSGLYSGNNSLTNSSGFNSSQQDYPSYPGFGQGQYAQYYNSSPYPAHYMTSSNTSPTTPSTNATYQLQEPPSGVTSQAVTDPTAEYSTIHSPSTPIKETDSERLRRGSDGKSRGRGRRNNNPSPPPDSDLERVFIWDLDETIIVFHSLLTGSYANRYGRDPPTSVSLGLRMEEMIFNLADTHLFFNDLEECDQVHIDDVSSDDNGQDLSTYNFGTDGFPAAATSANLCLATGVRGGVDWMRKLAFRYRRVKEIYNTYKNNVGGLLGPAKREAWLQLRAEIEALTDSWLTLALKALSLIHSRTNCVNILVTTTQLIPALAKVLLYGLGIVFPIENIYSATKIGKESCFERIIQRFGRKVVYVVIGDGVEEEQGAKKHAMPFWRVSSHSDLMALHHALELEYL


Target: T1, 2× HA-3× FLAG-Eya1
Experiment: affinity purification with mass spectrometry; tandem purification of HF-Eya1 from lysate of stable HEK293 cells: anti-FLAG M2 beads, FLAG peptide elution, then anti-HA agarose; 50 mM Tris-HCl pH 7.5, 150 mM NaCl, 0.1% Nonidet P-40, 4°C; 12 bands (B1-B12) cut from a silver-stained gel

binding | Binder
binds | SMC1A (structural maintenance of chromosomes) (protein, UniProt Q14683 1-1233) MGFLKLIEIENFKSYKGRQIIGPFQRFTAIIGPNGSGKSNLMDAISFVLGEKTSNLRVKTLRDLIHGAPVGKPAANRAFVSMVYSEEGAEDRTFARVIVGGSSEYKINNKVVQLHEYSEELEKLGILIKARNFLVFQGAVESIAMKNPKERTALFEEISRSGELAQEYDKRKKEMVKAEEDTQFNYHRKKNIAAERKEAKQEKEEADRYQRLKDEVVRAQVQLQLFKLYHNEVEIEKLNKELASKNKEIEKDKKRMDKVEDELKEKKKELGKMMREQQQIEKEIKEKDSELNQKRPQYIKAKENTSHKIKKLEAAKKSLQNAQKHYKKRKGDMDELEKEMLSVEKARQEFEERMEEESQSQGRDLTLEENQVKKYHRLKEEASKRAATLAQELEKFNRDQKADQDRLDLEERKKVETEAKIKQKLREIEENQKRIEKLEEYITTSKQSLEEQKKLEGELTEEVEMAKRRIDEINKELNQVMEQLGDARIDRQESSRQQRKAEIMESIKRLYPGSVYGRLIDLCQPTQKKYQIAVTKVLGKNMDAIIVDSEKTGRDCIQYIKEQRGEPETFLPLDYLEVKPTDEKLRELKGAKLVIDVIRYEPPHIKKALQYACGNALVCDNVEDARRIAFGGHQRHKTVALDGTLFQKSGVISGGASDLKAKARRWDEKAVDKLKEKKERLTEELKEQMKAKRKEAELRQVQSQAHGLQMRLKYSQSDLEQTKTRHLALNLQEKSKLESELANFGPRINDIKRIIQSREREMKDLKEKMNQVEDEVFEEFCREIGVRNIREFEEEKVKRQNEIAKKRLEFENQKTRLGIQLDFEKNQLKEDQDKVHMWEQTVKKDENEIEKLKKEEQRHMKIIDETMAQLQDLKNQHLAKKSEVNDKNHEMEEIRKKLGGANKEMTHLQKEVTAIETKLEQKRSDRHNLLQACKMQDIKLPLSKGTMDDISQEEGSSQGEDSVSGSQRISSIYAREALIEIDYGDLCEDLKDAQAEEEIKQEMNTLQQKLNEQQSVLQRIAAPNMKAMEKLESVRDKFQETSDEFEAARKRAKKAKQAFEQIKKERFDRFNACFESVATNIDEIYKALSRNSSAQAFLGPENPEEPYLDGINYNCVAPGKRFRPMDNLSGGEKTVAALALLFAIHSYKPAPFFVLDEIDAALDNTNIGKVANYIKEQSTCNFQAIVISLKEEFYTKAESLIGVYPEQGDCVISKVLTFDLTKYPDANPNPNEQ
binds | SMC6 (protein, UniProt Q96SB8 1-1091) MAKRKEENFSSPKNAKRPRQEELEDFDKDGDEDECKGTTLTAAEVGIIESIHLKNFMCHSMLGPFKFGSNVNFVVGNNGSGKSAVLTALIVGLGGRAVATNRGSSLKGFVKDGQNSADISITLRNRGDDAFKASVYGNSILIQQHISIDGSRSYKLKSATGSVVSTRKEELIAILDHFNIQVDNPVSVLTQEMSKQFLQSKNEGDKYKFFMKATQLEQMKEDYSYIMETKERTKEQIHQGEERLTELKRQCVEKEERFQSIAGLSTMKTNLESLKHEMAWAVVNEIEKQLNAIRDNIKIGEDRAARLDRKMEEQQVRLNEAEQKYKDIQDKLEKISEETNARAPECMALKADVVAKKRAYNEAEVLYNRSLNEYKALKKDDEQLCKRIEELKKSTDQSLEPERLERQKKISWLKERVKAFQNQENSVNQEIEQFQQAIEKDKEEHGKIKREELDVKHALSYNQRQLKELKDSKTDRLKRFGPNVPALLEAIDDAYRQGHFTYKPVGPLGACIHLRDPELALAIESCLKGLLQAYCCHNHADERVLQALMKRFYLPGTSRPPIIVSEFRNEIYDVRHRAAYHPDFPTVLTALEIDNAVVANSLIDMRGIETVLLIKNNSVARAVMQSQKPPKNCREAFTADGDQVFAGRYYSSENTRPKFLSRDVDSEISDLENEVENKTAQILNLQQHLSALEKDIKHNEELLKRCQLHYKELKMKIRKNISEIRELENIEEHQSVDIATLEDEAQENKSKMKMVEEHMEQQKENMEHLKSLKIEAENKYDAIKFKINQLSELADPLKDELNLADSEVDNQKRGKRHYEEKQKEHLDTLNKKKRELDMKEKELEEKMSQARQICPERIEVEKSASILDKEINRLRQKIQAEHASHGDREEIMRQYQEARETYLDLDSKVRTLKKFIKLLGEIMEHRFKTYQQFRRCLTLRCKLYFDNLLSQRAYCGKMNFDHKNETLSISVQPGEGNKAAFNDMRALSGGERSFSTVCFILSLWSIAESPFRCLDEFDVYMDMVNRRIAMDLILKMADSQRFRQFILLTPQSMSSLPSSKLIRILRMSDPERGQTTLPFRPVTQEEDDDQR
binds | PHF6 (protein, UniProt Q8IWS0 1-365) MSSSVEQKKGPTRQRKCGFCKSNRDKECGQLLISENQKVAAHHKCMLFSSALVSSHSDNESLGGFSIEDVQKEIKRGTKLMCSLCHCPGATIGCDVKTCHRTYHYHCALHDKAQIREKPSQGIYMVYCRKHKKTAHNSEADLEESFNEHELEPSSPKSKKKSRKGRPRKTNFKGLSEDTRSTSSHGTDEMESSSYRDRSPHRSSPSDTRPKCGFCHVGEEENEARGKLHIFNAKKAAAHYKCMLFSSGTVQLTTTSRAEFGDFDIKTVLQEIKRGKRMKCTLCSQPGATIGCEIKACVKTYHYHCGVQDKAKYIENMSRGIYKLYCKNHSGNDERDEEDEERESKSRGKVEIDQQQLTQQQLNGN

The remaining lines, values behind:

Binder | binding
MCM10 (protein, UniProt Q7L590 1-875) MDEEEDNLSLLTALLEENESALDCNSEENNFLTRENGEPDAFDELFDADGDGESYTEEADDGETGETRDEKENLATLFGDMEDLTDEEEVPASQSTENRVLPAPAPRREKTNEELQEELRNLQEQMKALQEQLKVTTIKQTASPARLQKSPVEKSPRPPLKERRVQRIQESTCFSAELDVPALPRTKRVARTPKASPPDPKSSSSRMTSAPSQPLQTISRNKPSGITRGQIVGTPGSSGETTQPICVEAFSGLRLRRPRVSSTEMNKKMTGRKLIRLSQIKEKMAREKLEEIDWVTFGVILKKVTPQSVNSGKTFSIWKLNDLRDLTQCVSLFLFGEVHKALWKTEQGTVVGILNANPMKPKDGSEEVCLSIDHPQKVLIMGEALDLGTCKAKKKNGEPCTQTVNLRDCEYCQYHVQAQYKKLSAKRADLQSTFSGGRIPKKFARRGTSLKERLCQDGFYYGGVSSASYAASIAAAVAPKKKIQTTLSNLVVKGTNLIIQETRQKLGIPQKSLSCSEEFKELMDLPTCGARNLKQHLAKATASGIMGSPKPAIKSISASALLKQQKQRMLEMRRRKSEEIQKRFLQSSSEVESPAVPSSSRQPPAQPPRTGSEFPRLEGAPATMTPKLGRGVLEGDDVLFYDESPPPRPKLSALAEAKKLAAITKLRAKGQVLTKTNPNSIKKKQKDPQDILEVKERVEKNTMFSSQAEDELEPARKKRREQLAYLESEEFQKILKAKSKHTGILKEAEAEMQERYFEPLVKKEQMEEKMRNIREVKCRVVTCKTCAYTHFKLLETCVSEQHEYHWHDGVKRFFKCPCGNRSISLDRLPNKHCSNCGLYKWERDGMLKEKTGPKIGGETLLPRGEEHAKFLNSLK | binds
MCM5 (protein, UniProt P33992 1-734) MSGFDDPGIFYSDSFGGDAQADEGQARKSQLQRRFKEFLRQYRVGTDRTGFTFKYRDELKRHYNLGEYWIEVEMEDLASFDEDLADYLYKQPAEHLQLLEEAAKEVADEVTRPRPSGEEVLQDIQVMLKSDASPSSIRSLKSDMMSHLVKIPGIIIAASAVRAKATRISIQCRSCRNTLTNIAMRPGLEGYALPRKCNTDQAGRPKCPLDPYFIMPDKCKCVDFQTLKLQELPDAVPHGEMPRHMQLYCDRYLCDKVVPGNRVTIMGIYSIKKFGLTTSRGRDRVGVGIRSSYIRVLGIQVDTDGSGRSFAGAVSPQEEEEFRRLAALPNVYEVISKSIAPSIFGGTDMKKAIACLLFGGSRKRLPDGLTRRGDINLLMLGDPGTAKSQLLKFVEKCSPIGVYTSGKGSSAAGLTASVMRDPSSRNFIMEGGAMVLADGGVVCIDEFDKMREDDRVAIHEAMEQQTISIAKAGITTTLNSRCSVLAAANSVFGRWDETKGEDNIDFMPTILSRFDMIFIVKDEHNEERDVMLAKHVITLHVSALTQTQAVEGEIDLAKLKKFIAYCRVKCGPRLSAEAAEKLKNRYIIMRSGARQHERDSDRRSSIPITVRQLEAIVRIAEALSKMKLQPFATEADVEEALRLFQVSTLDAALSGTLSGVEGFTSQEDQEMLSRIEKQLKRRFAIGSQVSEHSIIKDFTKQKYPEHAIHKVLQLMLRRGEIQHRMQRKVLYRLK | binds
MCM6 (protein, UniProt Q14566 1-821) MDLAAAAEPGAGSQHLEVRDEVAEKCQKLFLDFLEEFQSSDGEIKYLQLAEELIRPERNTLVVSFVDLEQFNQQLSTTIQEEFYRVYPYLCRALKTFVKDRKEIPLAKDFYVAFQDLPTRHKIRELTSSRIGLLTRISGQVVRTHPVHPELVSGTFLCLDCQTVIRDVEQQFKYTQPNICRNPVCANRRRFLLDTNKSRFVDFQKVRIQETQAELPRGSIPRSLEVILRAEAVESAQAGDKCDFTGTLIVVPDVSKLSTPGARAETNSRVSGVDGYETEGIRGLRALGVRDLSYRLVFLACCVAPTNPRFGGKELRDEEQTAESIKNQMTVKEWEKVFEMSQDKNLYHNLCTSLFPTIHGNDEVKRGVLLMLFGGVPKTTGEGTSLRGDINVCIVGDPSTAKSQFLKHVEEFSPRAVYTSGKASSAAGLTAAVVRDEESHEFVIEAGALMLADNGVCCIDEFDKMDVRDQVAIHEAMEQQTISITKAGVKATLNARTSILAAANPISGHYDRSKSLKQNINLSAPIMSRFDLFFILVDECNEVTDYAIARRIVDLHSRIEESIDRVYSLDDIRRYLLFARQFKPKISKESEDFIVEQYKHLRQRDGSGVTKSSWRITVRQLESMIRLSEAMARMHCCDEVQPKHVKEAFRLLNKSIIRVETPDVNLDQEEEIQMEVDEGAGGINGHADSPAPVNGINGYNEDINQESAPKASLRLGFSEYCRISNLIVLHLRKVEEEEDESALKRSELVNWYLKEIESEIDSEEELINKKRIIEKVIHRLTHYDHVLIELTQAGLKGSTEGSESYEEDPYLVVNPNYLLED | binds

These are yes or no findings as the source states them, for the method shown. In cells and extracts the contact can be indirect. These calls come from enrichment with a bait or labelling near it, and not all partners need be listed. Where a sequence is shown, tags or fusion partners need not be part of it.
